Taken from: PubChem BioAssay AID1224830 (NIAID, 2016)
Shown is an unselected part of about 18,000 reagents. About 2,900 of all reagents (16%) were called active. 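Calls are made per well; low scores hint the gene aids the LPS response, high scores that it dampens it.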 A number with no mark means an inactive call. Repeated entries: four replicate wells of each siRNA pool. No sequences are given here.

Purpose: 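Host factors that control LPS-induced TNF expression in human macrophages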 (primary screen)
Cell system: human THP-1 monocytic leukaemia cells, TNF dual-luciferase reporter clone, PMA-differentiated to macrophage-like cells
Reagents: siRNA pool against human genes, 50 nM
Time to read-out: LPS for 4 h, given about 3 days after siRNA transfection
Challenge: bacterial LPS (TLR4 ligand), 10 ng/ml
Read-out: 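TNF firefly reporter luminescence divided by renilla, normalised to the plate median, then turned into a robust z-score for each replicate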
Direction: TNF reporter robust z-score: higher = stronger TNF reporter response to LPS
Rule for the call: 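a well is active when its z-score exceeds 2.8 or falls below -1.5; control wells carry no call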

| target gene | TNF reporter robust z-score |
| --- | --- |
| TNNI3 (GeneID 7137) | -0.8 |
| TNNI3 (GeneID 7137) | 0.01 |
| TNNI3 (GeneID 7137) | -0.53 |
| TNNI3 (GeneID 7137) | 0.37 |
| TFB1M (GeneID 51106) | -1.06 |
| TFB1M (GeneID 51106) | -0.28 |
| TFB1M (GeneID 51106) | -0.53 |
| TFB1M (GeneID 51106) | -0.29 |
| EPHX2 (GeneID 2053) | -0.75 |
| EPHX2 (GeneID 2053) | 0.12 |
| EPHX2 (GeneID 2053) | -0.81 |
| EPHX2 (GeneID 2053) | -1.2 |
| AMACR (GeneID 23600) | -0.78 |
| AMACR (GeneID 23600) | -1.09 |
| AMACR (GeneID 23600) | -1.23 |
| AMACR (GeneID 23600) | -0.68 |
| FEM1B (GeneID 10116) | -0.25 |
| FEM1B (GeneID 10116) | -1.02 |
| FEM1B (GeneID 10116) | -0.58 |
| FEM1B (GeneID 10116) | -0.23 |
| EIF4G3 (GeneID 8672) | 0.63 |
| EIF4G3 (GeneID 8672) | -0.07 |
| EIF4G3 (GeneID 8672) | 0.47 |
| EIF4G3 (GeneID 8672) | 0.13 |
| CPNE9 (GeneID 151835) | 1.02 |
| CPNE9 (GeneID 151835) | -0.41 |
| CPNE9 (GeneID 151835) | -0.88 |
| CPNE9 (GeneID 151835) | -0.45 |
| CPNE9 (GeneID 151835) | 1.36 |
| CPNE9 (GeneID 151835) | 0.64 |
| CPNE9 (GeneID 151835) | -0.65 |
| CPNE9 (GeneID 151835) | 0.86 |
| MRO (GeneID 83876) | 0.44 |
| MRO (GeneID 83876) | 0.35 |
| MRO (GeneID 83876) | 0.06 |
| MRO (GeneID 83876) | 0.71 |
| SCOC (GeneID 60592) | 0.12 |
| SCOC (GeneID 60592) | -0.2 |
| SCOC (GeneID 60592) | -1.08 |
| SCOC (GeneID 60592) | -0.05 |
| SNX9 (GeneID 51429) | -2.24 (active) |
| SNX9 (GeneID 51429) | -2.18 (active) |
| SNX9 (GeneID 51429) | -1.7 (active) |
| SNX9 (GeneID 51429) | -1.14 |
| NPAS3 (GeneID 64067) | 0.94 |
| NPAS3 (GeneID 64067) | 0.75 |
| NPAS3 (GeneID 64067) | -0.33 |
| NPAS3 (GeneID 64067) | -0.46 |
| P2RY1 (GeneID 5028) | 1.51 |
| P2RY1 (GeneID 5028) | 1.67 |
| P2RY1 (GeneID 5028) | 1.01 |
| P2RY1 (GeneID 5028) | 0.64 |
| SLX9 (GeneID 85395) | -0.38 |
| SLX9 (GeneID 85395) | -0.21 |
| SLX9 (GeneID 85395) | -0.11 |
| SLX9 (GeneID 85395) | -0.47 |
| VTN (GeneID 7448) | -0.86 |
| VTN (GeneID 7448) | -0.2 |
| VTN (GeneID 7448) | -0.82 |
| VTN (GeneID 7448) | -0.32 |
| EDN3 (GeneID 1908) | -0.25 |
| EDN3 (GeneID 1908) | 0.78 |
| EDN3 (GeneID 1908) | -1.45 |
| EDN3 (GeneID 1908) | -0.78 |
| MRGPRX3 (GeneID 117195) | 0.67 |
| MRGPRX3 (GeneID 117195) | 0.5 |
| MRGPRX3 (GeneID 117195) | 0.69 |
| MRGPRX3 (GeneID 117195) | 0.7 |
| MAZ (GeneID 4150) | -1.4 |
| MAZ (GeneID 4150) | 0.53 |
| MAZ (GeneID 4150) | 0.19 |
| MAZ (GeneID 4150) | -0.23 |
| STK26 (GeneID 51765) | 0.69 |
| STK26 (GeneID 51765) | -0.82 |
| STK26 (GeneID 51765) | -0.55 |
| STK26 (GeneID 51765) | 0.98 |
| GLDN (GeneID 342035) | -0.55 |
| GLDN (GeneID 342035) | -1.02 |
| GLDN (GeneID 342035) | -0.61 |
| GLDN (GeneID 342035) | 0.46 |
| C2orf69 (GeneID 205327) | 0.78 |
| C2orf69 (GeneID 205327) | 0.94 |
| C2orf69 (GeneID 205327) | 0.07 |
| C2orf69 (GeneID 205327) | 0.43 |
| GSKIP (GeneID 51527) | -1.46 |
| GSKIP (GeneID 51527) | -1.23 |
| GSKIP (GeneID 51527) | -0.81 |
| GSKIP (GeneID 51527) | -1.16 |
| DALRD3 (GeneID 55152) | -0.33 |
| DALRD3 (GeneID 55152) | -0.92 |
| DALRD3 (GeneID 55152) | -0.74 |
| DALRD3 (GeneID 55152) | 0.35 |
| NUP42 (GeneID 11097) | 0.67 |
| NUP42 (GeneID 11097) | 0.59 |
| NUP42 (GeneID 11097) | -0.99 |
| NUP42 (GeneID 11097) | -0.65 |
| BAG4 (GeneID 9530) | -0.44 |
| BAG4 (GeneID 9530) | 0.95 |
| BAG4 (GeneID 9530) | -1.13 |
| BAG4 (GeneID 9530) | 0.5 |
| PPM1G (GeneID 5496) | 2.59 |
| PPM1G (GeneID 5496) | 1.02 |
| PPM1G (GeneID 5496) | 2.01 |
| PPM1G (GeneID 5496) | 1.61 |
| REPS2 (GeneID 9185) | -0.33 |
| REPS2 (GeneID 9185) | 0.26 |
| REPS2 (GeneID 9185) | 0.56 |
| REPS2 (GeneID 9185) | 0.16 |
| CPA4 (GeneID 51200) | -0.29 |
| CPA4 (GeneID 51200) | -0.04 |
| CPA4 (GeneID 51200) | 0.09 |
| CPA4 (GeneID 51200) | 2.31 |
| CD36 (GeneID 948) | -0.54 |
| CD36 (GeneID 948) | 0.08 |
| CD36 (GeneID 948) | 0.05 |
| CD36 (GeneID 948) | 0.14 |
| TMEM115 (GeneID 11070) | -0.7 |
| TMEM115 (GeneID 11070) | -0.26 |
| TMEM115 (GeneID 11070) | -0.3 |
| TMEM115 (GeneID 11070) | 0.68 |
| QRSL1 (GeneID 55278) | 1.45 |
| QRSL1 (GeneID 55278) | 1.12 |
| QRSL1 (GeneID 55278) | 1.72 |
| QRSL1 (GeneID 55278) | 1.33 |
| PNPLA7 (GeneID 375775) | -1.69 (active) |
| PNPLA7 (GeneID 375775) | -1.97 (active) |
| PNPLA7 (GeneID 375775) | -1.79 (active) |
| PNPLA7 (GeneID 375775) | -1.82 (active) |
| NRGN (GeneID 4900) | -0.74 |
| NRGN (GeneID 4900) | 1.54 |
| NRGN (GeneID 4900) | 0.58 |
| NRGN (GeneID 4900) | 0.02 |
| ABHD17A (GeneID 81926) | -0.6 |
| ABHD17A (GeneID 81926) | -0.34 |
| ABHD17A (GeneID 81926) | -0.44 |
| ABHD17A (GeneID 81926) | -0.96 |
| NBPF1 (GeneID 55672) | -1.62 (active) |
| NBPF1 (GeneID 55672) | -0.98 |
| NBPF1 (GeneID 55672) | -0.61 |
| NBPF1 (GeneID 55672) | -1.27 |
